For at least one compound, name, drawing or mass did not settle the structure.
Tests used:
Type in all cases: in vivo, male Albino Sprague Dawley rats
myeloperoxidase (MPO) = assay: Tissue myeloperoxidase (MPO) levels in jejunum and ileum, ELISA (Example 17); conditions: rats treated with diclofenac 4 mg/kg BID, co-administration of omeprazole 0.7 mg/kg/day, 14 days
Description: (§1) (indomethacin plus omeprazole ulcerated controls)
(§2) Groups 1 to 11 were treated as follows:
(§3) The whole intestinal tract was removed and intestinal tissue specimens processed for the evaluation of tissue myeloperoxidase (MPO) levels, an index of tissue neutrophils infiltration, of tissue malondialdehyde (MDA) levels, an index of lipid peroxidation and histological analysis of intestinal damage in jejunum and ileum.
MPO was assessed as described by Fornai et al., NSAID-Induced Enteropathy: Are the Currently Available Selective COX-2 Inhibitors All the Same, J Pharmacol Exp Ther January 2014 348:86-95 and assumed as a quantitative index to estimate the degree of intestinal wall infiltration by polymorphonuclear cells.
Specimens of 30 mg intestinal tissues were homogenized on ice with a polytron homogenizer (QIAGEN, Milan, Italy) in 0.6 mL of ice-cold lysis buffer consisting of 200 mM NaCl, 5 mM EDTA, 10 mM Tris, 10% glycerine, 1 mM phenylmethylsulfonyl fluoride, 1 μg/ml leupeptin and 28 μg/ml aprotinin at pH 7.4. The homogenate was centrifuged 2 times at […] at 1.500 g. The supernatant was diluted 1:5 and used for determination of MPO concentration by means of enzyme-linked immunosorbent assay (ELISA). (Hycult Biotech, Uden, Netherlands). All samples were assayed as described in Example 15. The results were expressed as nanograms of MPO per milligram of intestinal tissue.

malondialdehyde (MDA) = assay: Tissue malondialdehyde (MDA) levels in jejunum and ileum, colorimetric assay (Example 17); conditions: rats treated with indomethacin […] BID, co-administration of omeprazole 0.7 mg/kg/day, 14 days
Description: as §1, §2, §3
MDA concentration in intestinal tissues was determined to obtain quantitative estimates of membrane lipid peroxidation as described by Fornai et al., NSAID-Induced Enteropathy: Are the Currently Available Selective COX-2 Inhibitors All the Same? J Pharmacol Exp Ther January 2014 348:86-95. For this purpose, intestinal tissue was excised, weighed, minced by forceps, homogenized in 2 ml of cold buffer consisting of Tris-HCl 20 mM, at pH 7.4, using a polytron homogenizer (QIAGEN, Milan, Italy), and centrifuged at 1,500 g for 10 min at 4° C. Aliquots of supernatants were then used for subsequent assay procedures. Mucosal MDA concentrations were estimated using a colorimetric assay kit (Cayman Chemical, Ann Arbor, Mich., U.S.A.). Results were expressed as nanomoles of MDA per milligram of intestinal tissue.

[1] = Blood hemoglobin levels in indomethacin- and diclofenac-induced enteropathy in rats (Example 17); conditions: omeprazole 0.7 mg/kg/day concomitant with indomethacin or diclofenac, 14 days
Description: A total of one hundred forty two (142) male Albino Sprague Dawley rats, 500 to 600 g body weight (40-week old) were assessed.
(§4) Group 1: ten animals treated with drug vehicle for 14 days (normal controls).
(§5) Group 6: twelve omeprazole-treated animals co-treated with gastroresistant rifaximin (50 mg/kg BID) for 14 days (omeprazole controls)
(§6) The enteropathy induced using diclofenac was carried out in the groups 8 to 11 as follows:
(§7) Group 8: fifteen animals treated with diclofenac 4 mg/kg BID (diclofenac ulcerated control
(§8) Group 9: fifteen animals treated with diclofenac 4 mg/kg BID and omeprazole 0.7 mg/kg once daily (diclofenac and omeprazole ulcerated control)
(§9) Group 10: twelve diclofenac-treated animals co-treated with gastroresistant rifaximin (50 mg/kg BID) for 14 days
(§10) Group 11: twelve diclofenac- and omeprazole-treated animals co-treated with gastroresistant rifaximin (50 mg/kg BID) for 14 days
as §2
(§11) Group 1 received 1% methylcellulose (0.3 ml/rat) and 1% methylcellulose (1 ml/rat) for 14 days.
(§12) Group 6 received gastroresistant rifaximin (50 mg/kg; 12 rats/group) suspended in 1% methylcellulose (1 ml/rat), twice daily, 1 hour before omeprazole 0.7 mg/kg once daily […]
Haemoglobin analysis was performed on blood samples collected as reported above, using a Quantichrom Hemoglobin assay kit (Bioassay Systems, Hayward, Calif., USA) and expressed as g/dL.

[2] = test system: indomethacin- and diclofenac-induced small intestinal damage; assay: Microscopical analysis of small intestinal damage in jejunum and ileum (Example 17); conditions: rats treated with indomethacin […] BID, co-administration of omeprazole 0.7 mg/kg/day, 14 days
Description: as §4, §5, §6, §7, §8, §9, §10, §2, §11, §12
The full length of the small intestine was measured. […]
The statistical significance of data was evaluated by one way analysis of variance (ANOVA) followed by post hoc analysis by Student-Newman-Keuls test, and P values lower than 0.05 were considered significant. […]

## COc1ccc2[nH]c([S+]([O-])Cc3ncc(C)c(OC)c3C)nc2c1 (stereo not shown) [omeprazole]
Myeloperoxidase (MPO)
  Jejunal MPO levels (in words): did not elicit any significant change in jejunal MPO levels
Malondialdehyde (MDA)
  MDA levels in jejunum and ileum (in words): did not modify MDA levels
[1]
  Blood hemoglobin concentration (in words): did not affect the reduced hemoglobin concentration
[2]
  Jejunal lesions type 1, 2 and 3 (in words): significant reduction of both Type 1, 2 and 3 lesions
